# From PMC9045647
# Amino acid sequences for entries named in this document (tags omitted).
# UniProt O53166: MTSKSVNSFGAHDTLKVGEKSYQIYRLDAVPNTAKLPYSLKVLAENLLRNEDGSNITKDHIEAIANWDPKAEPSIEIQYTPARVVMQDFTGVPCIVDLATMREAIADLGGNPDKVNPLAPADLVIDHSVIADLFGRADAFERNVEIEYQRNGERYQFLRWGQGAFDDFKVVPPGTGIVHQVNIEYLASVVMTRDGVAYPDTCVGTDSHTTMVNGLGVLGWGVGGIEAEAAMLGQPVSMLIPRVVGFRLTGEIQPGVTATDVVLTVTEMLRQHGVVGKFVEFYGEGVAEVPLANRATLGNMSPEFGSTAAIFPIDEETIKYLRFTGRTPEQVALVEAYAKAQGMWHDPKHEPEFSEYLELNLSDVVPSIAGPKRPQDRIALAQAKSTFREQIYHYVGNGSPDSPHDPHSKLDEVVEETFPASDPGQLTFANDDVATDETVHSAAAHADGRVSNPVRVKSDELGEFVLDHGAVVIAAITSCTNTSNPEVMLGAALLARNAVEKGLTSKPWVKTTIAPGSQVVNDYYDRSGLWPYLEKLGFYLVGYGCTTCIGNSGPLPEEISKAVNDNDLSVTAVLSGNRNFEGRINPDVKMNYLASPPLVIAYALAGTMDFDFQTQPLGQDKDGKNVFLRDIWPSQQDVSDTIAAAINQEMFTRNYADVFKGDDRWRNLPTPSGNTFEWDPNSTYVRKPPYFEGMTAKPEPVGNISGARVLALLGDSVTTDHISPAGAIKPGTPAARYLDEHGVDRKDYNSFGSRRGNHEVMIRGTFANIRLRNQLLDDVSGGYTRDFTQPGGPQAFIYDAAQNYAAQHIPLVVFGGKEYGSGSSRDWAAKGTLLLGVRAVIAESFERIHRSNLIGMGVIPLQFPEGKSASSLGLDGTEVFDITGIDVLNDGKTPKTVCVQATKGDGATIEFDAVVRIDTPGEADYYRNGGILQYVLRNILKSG
# These are yes or no findings as the source states them, for the method shown. In cells and extracts the contact can be indirect. Some entries that bind do so weakly or less than the wild type. Where a sequence is shown, tags or fusion partners need not be part of it.
# Biological target: T1, SufT (Rv1466), endogenous in Mtb (Mycobacterium tuberculosis (endogenous in Mtb H37Rv-derived strains)) (UniProt O53157)
# T1 sequence: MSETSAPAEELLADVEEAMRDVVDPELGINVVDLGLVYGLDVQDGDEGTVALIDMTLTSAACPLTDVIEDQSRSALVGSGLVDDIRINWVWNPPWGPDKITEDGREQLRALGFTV
# Test: co-IP
substance,measurement,value
"aconitase (Acn), endogenous in Mtb (from UniProt O53166 1-943) (enzyme)",binding,binds
